Data: PMC11840738
No constants are given. Whether binding was seen depends on the method and setting. Binding seen in cells or lysates may run through a third protein. Some binding calls cover weakened binding; strength is not graded here.

Sequences of proteins named here, by UniProt entry; tags and fusion partners are left off.
UniProt Q9H0A0: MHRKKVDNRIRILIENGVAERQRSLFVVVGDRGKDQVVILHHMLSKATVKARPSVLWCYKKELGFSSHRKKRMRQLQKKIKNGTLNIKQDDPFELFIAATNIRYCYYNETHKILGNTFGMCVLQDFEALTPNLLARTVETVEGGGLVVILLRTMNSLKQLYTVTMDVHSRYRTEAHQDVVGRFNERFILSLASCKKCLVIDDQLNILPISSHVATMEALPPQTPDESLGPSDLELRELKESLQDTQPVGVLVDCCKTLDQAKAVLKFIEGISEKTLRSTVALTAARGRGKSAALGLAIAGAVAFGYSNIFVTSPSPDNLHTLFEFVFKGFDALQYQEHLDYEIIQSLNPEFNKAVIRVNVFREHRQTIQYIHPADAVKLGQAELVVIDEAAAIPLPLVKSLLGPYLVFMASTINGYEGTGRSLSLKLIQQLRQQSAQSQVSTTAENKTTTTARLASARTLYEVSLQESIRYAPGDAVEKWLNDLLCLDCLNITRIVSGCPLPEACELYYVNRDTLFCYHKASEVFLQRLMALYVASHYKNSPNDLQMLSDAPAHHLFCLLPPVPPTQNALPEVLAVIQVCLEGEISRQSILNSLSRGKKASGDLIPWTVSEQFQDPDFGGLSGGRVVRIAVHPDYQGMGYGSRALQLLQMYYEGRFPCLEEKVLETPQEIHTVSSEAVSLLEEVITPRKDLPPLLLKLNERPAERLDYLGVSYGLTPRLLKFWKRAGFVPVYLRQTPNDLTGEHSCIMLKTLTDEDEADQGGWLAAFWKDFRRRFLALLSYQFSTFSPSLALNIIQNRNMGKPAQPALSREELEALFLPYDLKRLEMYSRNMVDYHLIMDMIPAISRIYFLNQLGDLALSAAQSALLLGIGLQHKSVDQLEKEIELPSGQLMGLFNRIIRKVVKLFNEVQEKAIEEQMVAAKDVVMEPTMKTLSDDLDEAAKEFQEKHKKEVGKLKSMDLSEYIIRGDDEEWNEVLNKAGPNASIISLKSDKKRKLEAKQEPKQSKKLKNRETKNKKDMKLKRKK

Biological target: NAT10 (N-acetyltransferase 10) in BGC823 and MGC803 cell lysates (human (in BGC823 and MGC803 cells)) (UniProt Q9H0A0)
Assay: co-IP; lysates of BGC823 and MGC803 cells cultured in 25 mM glucose medium or glucose-free medium containing leupeptin (10 uM) for 6 or 12 h; lysate incubated with the indicated antibodies overnight at 4 °C, Protein A+G beads, Western blot

Row | Substance | binding
1 | sequestosome 1 (SQSTM1)/p62 (from UniProt Q13501 1-440) | binds
2 | microtubule-associated protein 1 light chain 3 alpha (LC3) (from UniProt Q9H492 1-121) | binds
